Measured values taken from doi:10.1101/2022.11.04.515170.
No constants are given. Whether binding was seen depends on the method and setting. Binding seen in cells or lysates may run through a third protein. Some entries that bind do so weakly or less than the wild type. Where a sequence is shown, tags or fusion partners need not be part of it.

By UniProt entry, the sequences of proteins in these tests, tags left out. Where a name states a change or a piece, a line headed by the entry shows the natural chain unless it says otherwise. Residues count along the entry.
UniProt Q13596, whole entry: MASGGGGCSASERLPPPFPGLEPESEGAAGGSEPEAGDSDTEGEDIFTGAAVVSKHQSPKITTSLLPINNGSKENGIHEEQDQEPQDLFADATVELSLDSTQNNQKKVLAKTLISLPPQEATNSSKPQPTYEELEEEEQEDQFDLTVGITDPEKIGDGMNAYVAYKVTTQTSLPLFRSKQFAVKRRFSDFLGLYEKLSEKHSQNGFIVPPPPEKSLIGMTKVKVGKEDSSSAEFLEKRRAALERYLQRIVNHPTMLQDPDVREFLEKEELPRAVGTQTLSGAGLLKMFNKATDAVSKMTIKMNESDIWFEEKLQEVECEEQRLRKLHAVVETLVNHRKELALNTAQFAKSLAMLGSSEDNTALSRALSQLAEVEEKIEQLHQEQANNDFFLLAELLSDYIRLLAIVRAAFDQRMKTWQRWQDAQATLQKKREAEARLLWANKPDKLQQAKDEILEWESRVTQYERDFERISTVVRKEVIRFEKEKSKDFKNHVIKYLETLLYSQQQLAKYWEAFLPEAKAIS
UniProt P11717, 41-2491: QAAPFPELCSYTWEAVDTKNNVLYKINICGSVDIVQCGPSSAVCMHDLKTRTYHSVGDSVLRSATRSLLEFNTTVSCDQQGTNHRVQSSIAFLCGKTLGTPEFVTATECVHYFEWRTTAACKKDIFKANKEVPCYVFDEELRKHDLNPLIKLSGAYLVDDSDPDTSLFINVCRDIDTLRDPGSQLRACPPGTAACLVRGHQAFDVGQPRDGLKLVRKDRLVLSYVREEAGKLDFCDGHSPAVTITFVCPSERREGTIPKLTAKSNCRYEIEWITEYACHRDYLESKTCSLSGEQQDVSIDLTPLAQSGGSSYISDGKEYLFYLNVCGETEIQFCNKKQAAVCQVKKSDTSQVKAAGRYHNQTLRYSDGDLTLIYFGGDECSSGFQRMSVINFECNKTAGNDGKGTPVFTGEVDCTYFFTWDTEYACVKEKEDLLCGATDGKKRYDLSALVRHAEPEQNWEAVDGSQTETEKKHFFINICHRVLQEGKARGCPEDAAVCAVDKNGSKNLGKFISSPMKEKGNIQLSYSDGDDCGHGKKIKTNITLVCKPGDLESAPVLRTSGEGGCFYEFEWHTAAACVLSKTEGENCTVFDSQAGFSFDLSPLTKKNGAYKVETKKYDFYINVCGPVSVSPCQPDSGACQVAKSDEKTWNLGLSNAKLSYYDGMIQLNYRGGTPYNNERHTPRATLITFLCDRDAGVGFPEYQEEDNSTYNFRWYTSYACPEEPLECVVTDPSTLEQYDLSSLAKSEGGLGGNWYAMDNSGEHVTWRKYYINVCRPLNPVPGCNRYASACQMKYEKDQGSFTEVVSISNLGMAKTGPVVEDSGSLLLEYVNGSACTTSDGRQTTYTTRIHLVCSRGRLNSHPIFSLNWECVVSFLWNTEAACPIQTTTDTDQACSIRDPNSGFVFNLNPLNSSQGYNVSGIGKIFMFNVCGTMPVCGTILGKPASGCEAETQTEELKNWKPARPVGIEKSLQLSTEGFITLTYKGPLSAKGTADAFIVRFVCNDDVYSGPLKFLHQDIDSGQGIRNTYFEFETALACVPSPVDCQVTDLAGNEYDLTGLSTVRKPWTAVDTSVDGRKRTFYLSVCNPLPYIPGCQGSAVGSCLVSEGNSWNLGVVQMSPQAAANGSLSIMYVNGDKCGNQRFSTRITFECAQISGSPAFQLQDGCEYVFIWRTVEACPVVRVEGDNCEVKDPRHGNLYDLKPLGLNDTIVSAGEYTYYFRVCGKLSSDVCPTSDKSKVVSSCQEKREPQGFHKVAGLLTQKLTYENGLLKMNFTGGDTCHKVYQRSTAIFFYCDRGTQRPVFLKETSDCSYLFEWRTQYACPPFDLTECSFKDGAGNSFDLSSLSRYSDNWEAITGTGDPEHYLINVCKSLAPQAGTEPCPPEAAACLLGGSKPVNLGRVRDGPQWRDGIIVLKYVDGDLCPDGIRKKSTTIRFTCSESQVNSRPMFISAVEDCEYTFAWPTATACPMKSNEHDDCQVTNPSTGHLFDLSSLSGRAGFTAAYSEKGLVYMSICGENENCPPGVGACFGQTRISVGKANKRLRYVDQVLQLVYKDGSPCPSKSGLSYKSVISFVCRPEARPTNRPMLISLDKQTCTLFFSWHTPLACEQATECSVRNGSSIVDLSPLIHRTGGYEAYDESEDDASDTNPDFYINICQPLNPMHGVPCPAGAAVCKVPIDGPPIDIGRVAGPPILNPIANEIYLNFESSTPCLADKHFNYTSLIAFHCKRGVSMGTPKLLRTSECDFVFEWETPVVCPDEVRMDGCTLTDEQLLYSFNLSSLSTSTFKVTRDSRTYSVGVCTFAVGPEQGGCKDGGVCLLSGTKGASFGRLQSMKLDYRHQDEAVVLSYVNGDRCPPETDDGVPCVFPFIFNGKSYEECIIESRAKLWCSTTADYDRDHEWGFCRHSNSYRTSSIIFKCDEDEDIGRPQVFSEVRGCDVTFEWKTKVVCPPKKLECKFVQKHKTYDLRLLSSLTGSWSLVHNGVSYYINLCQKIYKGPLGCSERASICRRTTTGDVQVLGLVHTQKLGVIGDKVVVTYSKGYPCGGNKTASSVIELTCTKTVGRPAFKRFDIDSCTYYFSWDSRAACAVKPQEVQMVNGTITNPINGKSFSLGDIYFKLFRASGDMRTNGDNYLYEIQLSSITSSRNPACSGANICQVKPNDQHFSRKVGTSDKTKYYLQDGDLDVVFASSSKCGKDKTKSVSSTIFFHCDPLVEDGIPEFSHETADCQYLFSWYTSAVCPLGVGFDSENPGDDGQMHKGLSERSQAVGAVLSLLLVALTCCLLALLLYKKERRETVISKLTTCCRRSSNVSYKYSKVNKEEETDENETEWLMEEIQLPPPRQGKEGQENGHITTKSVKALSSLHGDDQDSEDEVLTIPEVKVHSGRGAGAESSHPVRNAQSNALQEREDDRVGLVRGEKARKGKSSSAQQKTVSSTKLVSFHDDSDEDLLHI

What was measured:
His-SNX32ΔC = molecular target: T1, His-SNX32ΔC (UniProt Q86XE0); assay: pull-down
T1 sequence: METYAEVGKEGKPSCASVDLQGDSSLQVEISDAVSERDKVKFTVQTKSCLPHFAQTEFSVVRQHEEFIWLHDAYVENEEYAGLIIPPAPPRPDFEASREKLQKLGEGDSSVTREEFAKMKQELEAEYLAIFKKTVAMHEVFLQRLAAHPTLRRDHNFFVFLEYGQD

GFP-SNX32 F131D = molecular target: T2, GFP-SNX32 F131D (UniProt Q86XE0); assay: co-IP
T2 sequence: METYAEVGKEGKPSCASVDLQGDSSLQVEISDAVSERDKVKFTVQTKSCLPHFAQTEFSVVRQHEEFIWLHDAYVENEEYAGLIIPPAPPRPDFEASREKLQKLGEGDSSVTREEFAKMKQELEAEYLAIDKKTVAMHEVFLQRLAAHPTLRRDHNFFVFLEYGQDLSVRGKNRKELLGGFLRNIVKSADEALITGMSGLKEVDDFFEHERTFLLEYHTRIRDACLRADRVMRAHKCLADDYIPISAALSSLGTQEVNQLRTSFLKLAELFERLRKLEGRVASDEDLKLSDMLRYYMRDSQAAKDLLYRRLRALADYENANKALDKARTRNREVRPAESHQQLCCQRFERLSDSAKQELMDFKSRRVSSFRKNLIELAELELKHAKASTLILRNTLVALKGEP

GFP-SNX32 WT = molecular target: T3, GFP-SNX32 WT (UniProt Q86XE0); assay: co-IP
T3 sequence: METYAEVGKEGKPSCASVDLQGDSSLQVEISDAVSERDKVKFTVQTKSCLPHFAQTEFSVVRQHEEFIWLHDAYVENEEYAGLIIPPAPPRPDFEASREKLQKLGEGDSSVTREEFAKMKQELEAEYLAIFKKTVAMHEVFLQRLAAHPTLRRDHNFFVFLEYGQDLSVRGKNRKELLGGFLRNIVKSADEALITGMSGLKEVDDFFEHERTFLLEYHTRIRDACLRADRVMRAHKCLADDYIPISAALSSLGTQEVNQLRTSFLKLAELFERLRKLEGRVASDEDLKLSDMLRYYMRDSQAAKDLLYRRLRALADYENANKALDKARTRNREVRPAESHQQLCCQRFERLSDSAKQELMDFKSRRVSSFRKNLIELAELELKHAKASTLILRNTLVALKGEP

GFP-SNX1 = GFP-SNX1 (UniProt Q13596); assay: co-IP
GFP-SNX4 = molecular target: T4, GFP-SNX4 (UniProt O95219); assay: co-IP
T4 sequence: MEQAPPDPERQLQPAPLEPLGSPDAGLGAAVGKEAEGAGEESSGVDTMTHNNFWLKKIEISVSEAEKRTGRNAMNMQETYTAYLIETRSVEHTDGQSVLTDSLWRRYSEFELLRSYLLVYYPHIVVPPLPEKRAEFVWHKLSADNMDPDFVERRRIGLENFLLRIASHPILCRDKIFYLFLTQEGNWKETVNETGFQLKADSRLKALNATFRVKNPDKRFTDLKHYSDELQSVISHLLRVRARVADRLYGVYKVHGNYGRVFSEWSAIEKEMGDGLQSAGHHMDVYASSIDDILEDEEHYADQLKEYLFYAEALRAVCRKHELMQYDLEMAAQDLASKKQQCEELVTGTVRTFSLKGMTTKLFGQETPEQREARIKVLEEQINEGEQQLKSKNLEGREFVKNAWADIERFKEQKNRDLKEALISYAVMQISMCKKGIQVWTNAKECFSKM

GFP-SNX4, O95219 = molecular target: T5, GFP-SNX4, O95219; assay: co-IP; conditions: remark: other sources report otherwise
T5 chain: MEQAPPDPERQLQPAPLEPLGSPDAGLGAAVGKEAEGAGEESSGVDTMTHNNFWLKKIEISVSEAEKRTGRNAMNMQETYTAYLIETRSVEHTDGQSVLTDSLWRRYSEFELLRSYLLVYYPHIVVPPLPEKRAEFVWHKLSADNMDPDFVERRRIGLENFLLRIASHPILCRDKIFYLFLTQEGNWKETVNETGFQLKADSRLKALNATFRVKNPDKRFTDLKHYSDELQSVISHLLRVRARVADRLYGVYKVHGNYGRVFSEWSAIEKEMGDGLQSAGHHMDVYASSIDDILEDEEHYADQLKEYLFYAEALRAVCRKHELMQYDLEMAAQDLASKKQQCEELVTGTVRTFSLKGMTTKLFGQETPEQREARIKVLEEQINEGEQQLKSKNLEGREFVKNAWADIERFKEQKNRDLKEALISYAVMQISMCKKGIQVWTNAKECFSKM

Cation Independent Mannose-6-Phosphate Receptor (from UniProt P11717 41-2491)
binding (His-SNX32ΔC): binds
binding (GFP-SNX32 F131D): no binding

endogenous SNX1 (from UniProt Q13596 1-522)
binding (GFP-SNX32 F131D): binds
binding (GFP-SNX32 WT): binds

B1: HA-SNX32ΔN (domain or fragment, UniProt Q86XE0 167-403)
chain: LSVRGKNRKELLGGFLRNIVKSADEALITGMSGLKEVDDFFEHERTFLLEYHTRIRDACLRADRVMRAHKCLADDYIPISAALSSLGTQEVNQLRTSFLKLAELFERLRKLEGRVASDEDLKLSDMLRYYMRDSQAAKDLLYRRLRALADYENANKALDKARTRNREVRPAESHQQLCCQRFERLSDSAKQELMDFKSRRVSSFRKNLIELAELELKHAKASTLILRNTLVALKGEP
binding (GFP-SNX1): binds
binding (GFP-SNX4): binds

B2: HA-SNX32 FL, Q86XE0 1-403 (natural protein)
chain: METYAEVGKEGKPSCASVDLQGDSSLQVEISDAVSERDKVKFTVQTKSCLPHFAQTEFSVVRQHEEFIWLHDAYVENEEYAGLIIPPAPPRPDFEASREKLQKLGEGDSSVTREEFAKMKQELEAEYLAIFKKTVAMHEVFLQRLAAHPTLRRDHNFFVFLEYGQDLSVRGKNRKELLGGFLRNIVKSADEALITGMSGLKEVDDFFEHERTFLLEYHTRIRDACLRADRVMRAHKCLADDYIPISAALSSLGTQEVNQLRTSFLKLAELFERLRKLEGRVASDEDLKLSDMLRYYMRDSQAAKDLLYRRLRALADYENANKALDKARTRNREVRPAESHQQLCCQRFERLSDSAKQELMDFKSRRVSSFRKNLIELAELELKHAKASTLILRNTLVALKGEP
binding (GFP-SNX4, O95219): binds

B3: HA-SNX32ΔC (domain or fragment, UniProt Q86XE0 1-166)
chain: METYAEVGKEGKPSCASVDLQGDSSLQVEISDAVSERDKVKFTVQTKSCLPHFAQTEFSVVRQHEEFIWLHDAYVENEEYAGLIIPPAPPRPDFEASREKLQKLGEGDSSVTREEFAKMKQELEAEYLAIFKKTVAMHEVFLQRLAAHPTLRRDHNFFVFLEYGQD
binding (GFP-SNX1): no binding
binding (GFP-SNX4): no binding
